PubChem BioAssay AID1053208 – Peter MacCallum Cancer Centre – 2014
Assay: 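Find knock-downs that sensitise mouse osteosarcoma cells to doxorubicin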 (primary screen). System: mouse osteosarcoma cells, early-passage culture from an engineered mouse model of fibroblastic bone tumour. Reagent: siRNA pool against mouse genes, 40 nM. Timing: about 120 h (48 h before drug, then 72 h with drug). Challenge: doxorubicin 100 nM for 72 h, roughly 30-40% inhibitory dose. Measurement: 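Viability read as ATP luminescence after 72 h of 100 nM doxorubicin or none, duplicate wells averaged, scaled to non-targeting siRNA, then expressed as robust z-scores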. Direction: viability z-score with doxorubicin and doxorubicin viability vs non-targeting: higher = more viable cells under doxorubicin; viability z-score without drug: higher = more viable cells with knock-down alone; z-score of drug to no-drug ratio: higher = less drug sensitisation by knock-down. Hit rule: 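a pool counts as active when its viability z-score with doxorubicin is -2 or below and its z-score without drug lies between -2 and 2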.
The deposit covers about 17,000 reagents; below is a part drawn at random. Of all reagents, 788 (4.7%) are marked active. 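Calls rest on z-score classes alone; an extra cut-off of viability at most 70% of control was not applied to them.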 Some reagents were tested in more than one well and are listed for each.

no.	target gene	combined z-score class	viability z-score with doxorubicin	viability z-score without drug	z-score of drug to no-drug ratio	doxorubicin viability vs non-targeting	Outcome
1	Six6	no change with or without drug	1.12	1.85	0	1.04	inactive
2	Reln	no change with or without drug	0.45	-0.17	0.67	0.98	inactive
3	Cbx4	no change with or without drug	-0.45	-1.01	0.34	0.9	inactive
4	Foxm1	no change with or without drug	-0.22	-0.34	0.11	0.92	inactive
5	Man1a	no change with or without drug	-0.22	0	-0.11	0.92	inactive
6	Or5b101	no change with or without drug	-0.9	-0.84	-0.22	0.86	inactive
7	Krtap3-3	no change with or without drug	-0.45	-1.01	0.34	0.9	inactive
8	Scn11a	no change with or without drug	-0.22	-1.52	1.01	0.92	inactive
9	2810449C13RIK	no change with or without drug	0.79	-0.34	1.24	1.01	inactive
10	Aplp2	no change with or without drug	-0.9	-0.34	-0.67	0.86	inactive
11	Or2n1c	low cell count without drug only	-1.35	-2.19	0.22	0.82	inactive
12	Wdr27	no change with or without drug	-1.8	1.85	-2.7	0.78	inactive
13	Ckb	no change with or without drug	-0.45	-1.52	0.79	0.9	inactive
14	Egln3	low cell count with doxorubicin only	-3.37	1.01	-3.93	0.64	active
15	Arxes1	no change with or without drug	-0.11	-0.51	0.34	0.93	inactive
16	A130050O07Rik	no change with or without drug	-0.11	0	0	0.93	inactive
17	Ruvbl2	no change with or without drug	-1.12	0.51	-1.35	0.84	inactive
18	Tnip1	no change with or without drug	-0.67	-0.17	-0.45	0.88	inactive

Next part (7 carried over from the part before).
no.	target gene	combined z-score class	viability z-score with doxorubicin	viability z-score without drug	z-score of drug to no-drug ratio	doxorubicin viability vs non-targeting	Outcome
12	Wdr27	no change with or without drug	-1.8	1.85	-2.7	0.78	inactive
13	Ckb	no change with or without drug	-0.45	-1.52	0.79	0.9	inactive
14	Egln3	low cell count with doxorubicin only	-3.37	1.01	-3.93	0.64	active
15	Arxes1	no change with or without drug	-0.11	-0.51	0.34	0.93	inactive
16	A130050O07Rik	no change with or without drug	-0.11	0	0	0.93	inactive
17	Ruvbl2	no change with or without drug	-1.12	0.51	-1.35	0.84	inactive
18	Tnip1	no change with or without drug	-0.67	-0.17	-0.45	0.88	inactive
19	Snx33	no change with or without drug	-0.67	-0.51	-0.22	0.88	inactive
20	Slc17a9	no change with or without drug	1.12	-0.17	1.46	1.04	inactive
21	Chst4	no change with or without drug	0.56	0.84	0.11	0.99	inactive
22	Ncoa4	no change with or without drug	0.9	-1.01	1.91	1.02	inactive
23	Lrrd1	no change with or without drug	-0.22	-0.17	0	0.92	inactive
24	Enpp6	no change with or without drug	0	0.34	-0.11	0.94	inactive
25	Slc67a1	no change with or without drug	0	-0.51	0.45	0.94	inactive
26	Trappc2l	no change with or without drug	0.22	1.85	-0.79	0.96	inactive
27	Or10v1	no change with or without drug	-1.91	-0.84	-1.35	0.77	inactive
28	Vmn1r37	no change with or without drug	-0.79	0.84	-1.24	0.87	inactive
29	Zfand3	no change with or without drug	0.67	0.84	0.22	1	inactive
30	Zbtb11os1	no change with or without drug	-1.35	0.51	-1.57	0.82	inactive
31	Azi2	no change with or without drug	0.56	-1.01	1.46	0.99	inactive
32	Txnip	no change with or without drug	0.45	0.17	0.45	0.98	inactive
33	Tmc4	no change with or without drug	1.01	-0.17	1.35	1.03	inactive
34	Furin	no change with or without drug	-1.35	-1.85	0	0.82	inactive
35	Uba1	low cell count with doxorubicin only	-4.05	-1.85	-3.26	0.58	active
36	Elmo3	no change with or without drug	-1.35	0.34	-1.46	0.82	inactive
37	Rgs7	no change with or without drug	-0.67	-0.51	-0.22	0.88	inactive
38	Rgs7	low cell count without drug only	0.45	-3.2	3.48	0.98	inactive
39	Or4c107	no change with or without drug	0.56	0.17	0.56	0.99	inactive
40	Carm1	low cell count with doxorubicin only	-2.14	1.52	-2.92	0.75	active
41	Gpatch4	no change with or without drug	0.9	0.51	0.67	1.02	inactive
42	Inpp5k	no change with or without drug	0.67	-0.51	1.24	1	inactive
43	Mc1r	no change with or without drug	-1.69	-1.52	-0.67	0.79	inactive
44	Dipk2b	no change with or without drug	-0.9	-1.85	0.45	0.86	inactive
45	Crabp2	high cell count with doxorubicin only	2.36	1.18	1.69	1.15	inactive
46	Nxnl2	no change with or without drug	-0.45	0.51	-0.67	0.9	inactive
47	Cst6	no change with or without drug	0.45	1.52	-0.45	0.98	inactive
48	Rorc	no change with or without drug	0.67	0.51	0.45	1	inactive
49	Rnf130	no change with or without drug	0	-0.84	0.67	0.94	inactive
50	Nusap1	no change with or without drug	0	0.17	0	0.94	inactive
